Among the data in PubChem BioAssay AID298 (DTP/NCI, 2004) are survivor count and T/C values, retold here.

This experiment has as its system MX-1 breast xenograft, intrarenal, nude mice, tumor weight. As to the kind of experiment: NCI In Vivo Anticancer Drug Screen. Data for tumor model Human Mammary Carcinoma MX-1 Xenograft (intrarenal inoculation) in NU/NU BALB/C (nude) mice. Particulars: T/C endpoint: mean tumor weight change, higher T/C = larger tumour; for T/C: evaluated on day 11. The essentials: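 Transplantable tumors established in mice; animals dosed with compound or vehicle; survival or tumor size then recorded. Result reported as treated (T) divided by vehicle control (C).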

The mark [1] stands for this setting: dose: 600.0 mg/kg/injection, schedule: Q04DX003 (ip), vehicle: saline.
The mark [2] stands for this setting: dose: 1200.0 mg/kg/injection, schedule: Q04DX003 (ip), vehicle: saline.
The mark [3] stands for this setting: dose: 150.0 mg/kg/injection, schedule: Q04DX003 (ip), vehicle: other.
The mark [4] stands for this setting: dose: 600.0 mg/kg/injection, schedule: Q04DX003 (ip), vehicle: saline with Tween-80.
The mark [5] stands for this setting: dose: 300.0 mg/kg/injection, schedule: Q04DX003 (ip), vehicle: saline with Tween-80.
Where [6] appears, read: dose: 150.0 mg/kg/injection, schedule: Q04DX003 (ip), vehicle: saline with Tween-80.

Each structure is given as a SMILES string. The list does not hold the whole screen: it gathers tests that were run many times, whatever their T/C, doses with no T/C, and many T/C values between a quarter and a half above the control. Other doses and runs of a compound stand elsewhere. T/C gives the treated animals as a percentage of the vehicle group. Schedules are NCI's codes, read here as Q, the interval in days (D) or hours (H), X, the number of doses. Additions like (4×) give the number of equal values in this list. Some T/C values carry the count of animals alive at the toxicity check (mostly the fifth day); where none is given, no animal had died by that day. Some doses have a count of surviving animals in place of a T/C: the source files T/C as zero there, which appears to mark a toxic dose or a test without result, not a measured value. Counts of survivors are from the toxicity check (mostly the fifth day) where no day follows; animals may have died later. Some doses were run more than once; the results are listed from low to high.

For the molecule `N[C@@H](Cc1ccc(N(CCCl)CCCl)cc1)C(=O)O`, for the setting “dose: 8.0 mg/kg/injection, schedule: Q01DX010 (sc), vehicle: saline”, the survivor count is 1 of 3 on day 11.
With `c1ccc(P(CCNCCP(c2ccccc2)c2ccccc2)c2ccccc2)cc1`, the T/C (dose: 400.0 mg/kg/injection, schedule: Q04DX003 (ip), vehicle: saline with Tween-80) is 139 % of control.
Consider `CC(=O)NCCSSCCCCS(=O)O`, for which the survivor count under setting [1] is recorded as 2 of 5 on day 11 and the survivor count under setting [2] is 2 of 5 on day 11.
As to `Nc1n[nH]c2ccccc12`, the T/C under setting [3] was 130 % of control. The survivor count (dose: 1200.0 mg/kg/injection, schedule: Q04DX003 (ip), vehicle: other) is listed as 0 of 6 on day 11.
For the molecule `CN(Cc1cnc2nc(N)nc(N)c2n1)c1ccc(C(=O)N[C@@H](CCC(=O)O)C(=O)O)cc1`, where the note is “dose: 18.0 mg/kg/injection, schedule: Q04DX003 (ip), vehicle: sodium bicarbonate”, the T/C is 133 % of control.
Take `CC1Oc2cc3c(-c4c(O)cc(O)c5c(O)c6c(cc45)OC(C)C(C)C6=O)c(O)cc(O)c3c(O)c2C(=O)C1C` (centres undefined): the T/C (dose: 3.0 mg/kg/injection, schedule: Q04DX003 (ip), vehicle: suspension in saline) is 142 % of control and the T/C (dose: 6.0 mg/kg/injection, schedule: Q04DX003 (ip), vehicle: suspension in saline) is 142 % of control.
Turning to `CNC(=O)Sc1ccc(C)c(N(C)C)c1`, the survivor count is 0 of 6 on day 11 under setting [4] and 0 of 6 on day 11 (dose: 1200.0 mg/kg/injection, schedule: Q04DX003 (ip), vehicle: saline with Tween-80).
With `CN(CN1C(=O)CCC1=O)CN1C(=O)CCC1=O`, the survivor count runs as follows: under setting [1], 0 of 6 on day 11; under setting [2], 0 of 6 on day 11.
Turning to `O=C1CCC(=O)N1CO`, the survivor count runs as follows: (dose: 1200.0 mg/kg/injection, schedule: Q04DX003 (sc), vehicle: saline) 2 of 6 on day 11; (dose: 2400.0 mg/kg/injection, schedule: Q04DX003 (sc), vehicle: saline) 0 of 6 on day 11.
`CC(=O)OCN(C)C=O`: the T/C (dose: 300.0 mg/kg/injection, schedule: Q01DX010 (ip), vehicle: suspension in saline) is 138 % of control. Moreover, the survivor count by setting is: (dose: 600.0 mg/kg/injection, schedule: Q01DX010 (ip), vehicle: suspension in saline) 0 of 3 on day 11; (dose: 1200.0 mg/kg/injection, schedule: Q01DX010 (ip), vehicle: suspension in saline) 0 of 3 on day 11 and 0 of 4 on day 11; (dose: 2400.0 mg/kg/injection, schedule: Q01DX010 (ip), vehicle: suspension in saline) 0 of 3 on day 11 and 0 of 4 on day 11; (dose: 4800.0 mg/kg/injection, schedule: Q01DX010 (sc), vehicle: saline) 3 of 6 on day 11.
As to `CCNC=O`, the T/C (dose: 100.0 mg/kg/injection, schedule: Q01DX010 (sc), vehicle: saline) was 142 % of control.
As for `CCc1nc(N)nc(N)c1-c1ccc(Cl)c([N+](=O)[O-])c1`, the survivor count (dose: 150.0 mg/kg/injection, schedule: Q04DX003 (sc), vehicle: saline with Tween-80) is 0 of 6 on day 11.
Take `[Cl][Pt+2][Cl].[NH-]C1CCC1.[NH2-]`: the survivor count is reported as 0 of 6 on day 11 (dose: 25.0 mg/kg/injection, schedule: Q04DX003 (sc), vehicle: saline) and 0 of 6 on day 11 (dose: 50.0 mg/kg/injection, schedule: Q04DX003 (sc), vehicle: saline).
On to `NC(=S=O)C(N)=S=O`, for which the survivor count (dose: 1000.0 mg/kg/injection, schedule: Q04DX003 (ip), vehicle: saline with Tween-80) is recorded as 3 of 6 on day 11.
For the molecule `COc1cccc2c1[C@H]1CO[C@H]3C4C[C@H](C(=O)O)C([C@@H](C2)N13)N4C` (some centres undefined), the survivor count (dose: 60.0 mg/kg/injection, schedule: Q04DX003 (ip), vehicle: water) was 1 of 6 on day 11.
As for `COc1cc(/C=C/[N+](=O)[O-])cc(Br)c1OC`, the survivor count is 3 of 6 on day 11 (dose: 50.0 mg/kg/injection, schedule: Q04DX003 (ip), vehicle: saline with Tween-80); 2 of 6 on day 11 (dose: 100.0 mg/kg/injection, schedule: Q04DX003 (ip), vehicle: saline with Tween-80); 0 of 6 on day 11 (dose: 200.0 mg/kg/injection, schedule: Q04DX003 (ip), vehicle: saline with Tween-80).
Take `CCCCCCSc1nc(COC(=O)NC)c(COC(=O)NC)n1C`: for the setting “dose: 67.5 mg/kg/injection, schedule: Q04DX003 (ip), vehicle: saline”, the T/C was 126 % of control (2×). Where the note is “dose: 270.0 mg/kg/injection, schedule: Q04DX003 (ip), vehicle: saline”, the survivor count is 3 of 6 on day 11.
On to `COc1oc(C2C/C(=C/C(C)=C/C(C)=C/C(C)=C/c3ccc([N+](=O)[O-])cc3)CO2)c(C)c(=O)c1C` (centres undefined), for which the survivor count (dose: 4.0 mg/kg/injection, schedule: Q04DX003 (ip), vehicle: saline) is 3 of 6 on day 11 and the survivor count (dose: 8.0 mg/kg/injection, schedule: Q04DX003 (ip), vehicle: saline) is 1 of 6 on day 11.
Take `CSCCC(N)C(=O)O` (centres undefined): under setting [5], the T/C was 129 % of control.
For the molecule `C/C(=N\NC(=S)N1CC2CCC(CC2)C1)c1nccs1`, the survivor count is given as 2 of 6 on day 11 under setting [6], 0 of 6 on day 11 under setting [5] and 0 of 6 on day 11 under setting [4].
In the case of `C=C/C(C)=C/[C@H](C)C(=O)C[C@H](O)CC1CC(=O)NC(=O)C1`, the T/C (dose: 2400.0 mg/kg/injection, schedule: Q04DX003 (sc), vehicle: water) is 132 % of control [5 of 6 alive on day 11].
As for `CCCNC1=C(C)C(=O)C2=C(C1=O)[C@H](COC(N)=O)[C@]1(OC)[C@@H]3N[C@@H]3CN21`, the survivor count (dose: 24.0 mg/kg/injection, schedule: Q04DX003 (sc), vehicle: saline) is recorded as 0 of 6 on day 11.
For `O=NNc1ccc2cccnc2n1`, the survivor count runs as follows: under setting [3], 1 of 6 on day 11; (dose: 300.0 mg/kg/injection, schedule: Q04DX003 (ip), vehicle: other) 0 of 6 on day 11; (dose: 300.0 mg/kg/injection, schedule: Q04DX003 (ip), vehicle: water) 0 of 6 on day 11.
Take `CS(=O)(=O)CS(=O)(=O)OCCF`: the survivor count is 3 of 6 on day 11 (dose: 50.0 mg/kg/injection, schedule: Q04DX003 (ip), vehicle: saline) and 2 of 5 on day 11 (dose: 100.0 mg/kg/injection, schedule: Q04DX003 (ip), vehicle: saline).
Take `CC1(C)N=C(N)N=C(N)N1c1ccc(F)c(C(F)(F)F)c1`: the T/C (dose: 3.12 mg/kg/injection, schedule: Q01DX010 (sc), vehicle: saline) is 145 % of control.
With `O=[N+]([O-])c1nccn1CC(O)CO` (centres undefined), the T/C (dose: 1200.0 mg/kg/injection, schedule: Q04DX004 (sc), vehicle: saline) was 129 % of control.
For the molecule `N#Cc1ccc(NN=O)nc1`, the survivor count (dose: 100.0 mg/kg/injection, schedule: Q04DX003 (ip), vehicle: water) is reported as 2 of 6 on day 11.
For the molecule `CCCCCCCC(=O)OCC(=O)[C@]1(O)Cc2c(O)c3c(c(O)c2[C@@H](OC2CC(N)C(O)C(C)O2)C1)C(=O)c1c(OC)cccc1C3=O` (some centres undefined), the survivor count (dose: 8.0 mg/kg/injection, schedule: Q01DX010 (ip), vehicle: suspension in saline) is 0 of 6 on day 11; the survivor count (dose: 16.0 mg/kg/injection, schedule: Q01DX010 (ip), vehicle: suspension in saline) is 0 of 6 on day 11; the survivor count (dose: 16.0 mg/kg/injection, schedule: Q01DX010 (sc), vehicle: saline) is reported as 0 of 6 on day 11; the survivor count (dose: 16.0 mg/kg/injection, schedule: Q04DX003 (ip), vehicle: saline) is on record as 0 of 6 on day 11.
Consider `NS(=O)(=O)OCCCCCCCOS(N)(=O)=O`, for which the survivor count under setting [6] was 2 of 6 on day 11 and the survivor count under setting [5] is listed as 0 of 6 on day 11.
With `O=NNc1cnccn1`, the survivor count (dose: 200.0 mg/kg/injection, schedule: Q04DX003 (ip), vehicle: water) was 0 of 6 on day 11.
